For at least one compound, name, drawing or mass did not settle the structure.
System: young oophorectomized rats
Experiment: Estrogenic activity (uterine wet weight) in young oophorectomized rats
Assay type: in vivo, Sprague-Dawley rats
Conditions: subcutaneously for 3 days
Text: Test Example 1 Estrogenic activity of 7-isopropoxy-3-(4-hydroxyphenyl)-4H-1-benzopyran-4-one (hereinafter referred to as compound A) in young oophorectomized rats Sprague-Dawley rats, 33 days old and 11 days after oophorectomy for elimination of endogenous estrogenic activity, were used in groups of 6 to 7 animals. Compound A was suspended in a 1% aqueous solution of hydroxypropyl-cellulose and administered orally for 3 days, while as a representative example of the conventional estrogen drug, estrone was dissolved in sesame oil and administered subcutaneously for 3 days. On the fourth day, each animal was autopsied and its uterine wet weight was recorded.

Compound: C[C@]12CC[C@@H]3c4ccc(O)cc4CC[C@H]3[C@@H]1CCC2=O [Estrone, estrone, reference compound]
- uterine weight increasing effect, dose-response curve: uterine weight increasing effect with a dose-response curve of steep gradient

Reference: patent EP0136569A2, “Isoflavone derivatives, their production and use” (Takeda Chemical Industries, Ltd., priority 1983, dated 1985)
